# From the supplement of paper PMC8728848
# This is one part of the list.
# B1: SP15308F-bth-333-19-333 (Bacteroides thetaiotaomicron) (protein)
# chain: SCNNEWESEQYVQMVSFKAPVNAQGVTPIYIRYKPEGKVTYQLPLIVSGSTMNSKDLNVHVGLDLDTLDVLNVEHFGSRKELFFKPLENKYYEFPETVQIPAGECTSLLPIDFALKDLDQVDKWVLPLAIQSNDPSHNYQANPRKFYRRAMLRISPFNDYSGQYSATAYKVYFKGNEKEAIVPEYHTSYVIDDKTIFFYAGLIDIDRLDRKYYKIKFEFTEEKIDLQTRKLKISSDNEDINLVVKGQPSYTVEEEMDATRPYLKHIYVTINNLEYEFTDYTSVPGYPLEYVVKGSLTMERKINTQIPDEDQAIEW
# Experiments:
# Experiment in all cases: glycan array binding signal (z-score within array); higher = stronger binding
# Conditions in all cases: glycan notation: IUPAC condensed, linker removed
# [1] = target: Fuc(a1-2)Gal(b1-4)[Fuc(a1-3)]GlcNAc(b1-2)Man(a1-3)[Fuc(a1-2)Gal(b1-4)[Fuc(a1-3)]GlcNAc(b1-2)Man(a1-6)]Man(b1-4)GlcNAc(b1-4)[Fuc(a1-6)]GlcNAc
# Summary of the method: (§1)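 Arrays were curated from the Consortium for Functional Glycomics database, 3228 in total, and kept only where the protein sequence was available. Binding is expressed as a within-array Z-score. This score was averaged across arrays of the same protein sequence at different concentrations or buffers and across linkers, and negative values can be read as non-binding.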
# [2] = target: Fuc(a1-2)Gal(b1-4)[Fuc(a1-3)]GlcNAc(b1-2)[Fuc(a1-2)Gal(b1-4)[Fuc(a1-3)]GlcNAc(b1-4)]Man(a1-3)[Fuc(a1-2)Gal(b1-4)[Fuc(a1-3)]GlcNAc(b1-2)Man(a1-6)]Man(b1-4)GlcNAc(b1-4)GlcNAc
# Summary of the method: as §1
# [3] = target: Fuc(a1-2)Gal(b1-4)[Fuc(a1-3)]GlcNAc(b1-3)Gal(b1-4)[Fuc(a1-3)]GlcNAc
# Summary of the method: as §1
# [4] = target: Fuc(a1-2)Gal(b1-4)[Fuc(a1-3)]GlcNAc(b1-3)Gal(b1-4)[Fuc(a1-3)]GlcNAc(b1-3)Gal(b1-4)[Fuc(a1-3)]GlcNAc
# Summary of the method: as §1
# [5] = target: Fuc(a1-2)Gal(b1-4)[Fuc(a1-3)]GlcNAc(b1-3)GalNAc
# Summary of the method: as §1
# [6] = target: Fuc(a1-2)Gal(b1-4)[Fuc(a1-3)]GlcNAc(b1-3)[Neu5Ac(a2-6)Gal(b1-4)GlcNAc(b1-6)]Gal(b1-4)Glc
# Summary of the method: as §1
# [7] = target: Fuc(a1-2)Gal3S(b1-4)GlcNAc
# Summary of the method: as §1
# [8] = target: Fuc(a1-2)Gal6S(b1-3)GlcNAc
# Summary of the method: as §1
# [9] = target: Fuc(a1-2)Gal6S(b1-3)GlcNAc6S
# Summary of the method: as §1
# Fuc(a1-2)Gal6S(b1-4)Glc = target: Fuc(a1-2)Gal6S(b1-4)Glc
# Summary of the method: as §1
# [10] = target: Fuc(a1-2)Gal6S(b1-4)Glc6S
# Summary of the method: as §1
# Fuc(a1-2)[Gal(a1-3)]Gal = target: Fuc(a1-2)[Gal(a1-3)]Gal
# Summary of the method: as §1
# [11] = target: Fuc(a1-2)[Gal(a1-3)]Gal(b1-3)GalNAc
# Summary of the method: as §1
# [12] = target: Fuc(a1-2)[Gal(a1-3)]Gal(b1-3)GalNAc(b1-3)Gal(a1-4)Gal(b1-4)Glc
# Summary of the method: as §1
# [13] = target: Fuc(a1-2)[Gal(a1-3)]Gal(b1-3)GlcNAc
# Summary of the method: as §1
# [14] = target: Fuc(a1-2)[Gal(a1-3)]Gal(b1-3)GlcNAc(b1-2)Man(a1-3)[Fuc(a1-2)[Gal(a1-3)]Gal(b1-3)GlcNAc(b1-2)Man(a1-6)]Man(b1-4)GlcNAc(b1-4)GlcNAc
# Summary of the method: as §1
# [15] = target: Fuc(a1-2)[Gal(a1-3)]Gal(b1-3)GlcNAc(b1-2)Man(a1-3)[Fuc(a1-2)[Gal(a1-3)]Gal(b1-3)GlcNAc(b1-2)Man(a1-6)]Man(b1-4)GlcNAc(b1-4)[Fuc(a1-6)]GlcNAc
# Summary of the method: as §1
# [16] = target: Fuc(a1-2)[Gal(a1-3)]Gal(b1-3)GlcNAc(b1-3)GalNAc
# Summary of the method: as §1
# [17] = target: Fuc(a1-2)[Gal(a1-3)]Gal(b1-3)GlcNAc(b1-6)GalNAc
# Summary of the method: as §1
# [18] = target: Fuc(a1-2)[Gal(a1-3)]Gal(b1-4)Glc
# Summary of the method: as §1
# [19] = target: Fuc(a1-2)[Gal(a1-3)]Gal(b1-4)GlcNAc
# Summary of the method: as §1
# [20] = target: Fuc(a1-2)[Gal(a1-3)]Gal(b1-4)GlcNAc(b1-2)Man
# Summary of the method: as §1
# [21] = target: Fuc(a1-2)[Gal(a1-3)]Gal(b1-4)GlcNAc(b1-2)Man(a1-3)[Fuc(a1-2)[Gal(a1-3)]Gal(b1-4)GlcNAc(b1-2)Man(a1-6)]Man(b1-4)GlcNAc(b1-4)GlcNAc
# Summary of the method: as §1
# [22] = target: Fuc(a1-2)[Gal(a1-3)]Gal(b1-4)GlcNAc(b1-2)Man(a1-3)[Fuc(a1-2)[Gal(a1-3)]Gal(b1-4)GlcNAc(b1-2)Man(a1-6)]Man(b1-4)GlcNAc(b1-4)[Fuc(a1-6)]GlcNAc
# Summary of the method: as §1
# [23] = target: Fuc(a1-2)[Gal(a1-3)]Gal(b1-4)GlcNAc(b1-3)GalNAc
# Summary of the method: as §1
# [24] = target: Fuc(a1-2)[Gal(a1-3)]Gal(b1-4)GlcNAc(b1-3)[Fuc(a1-2)[Gal(a1-3)]Gal(b1-4)GlcNAc(b1-6)]GalNAc
# Summary of the method: as §1
# [25] = target: Fuc(a1-2)[Gal(a1-3)]Gal(b1-4)GlcNAc(b1-6)GalNAc
# Summary of the method: as §1
# [26] = target: Fuc(a1-2)[Gal(a1-3)]Gal(b1-4)[Fuc(a1-3)]Glc
# Summary of the method: as §1
# [27] = target: Fuc(a1-2)[Gal(a1-3)]Gal(b1-4)[Fuc(a1-3)]GlcNAc
# Summary of the method: as §1
# [28] = target: Fuc(a1-2)[Gal(a1-3)]Gal(b1-4)[Fuc(a1-3)]GlcNAc(b1-3)GalNAc
# Summary of the method: as §1
# [29] = target: Fuc(a1-2)[Gal(a1-4)]Gal(b1-4)GlcNAc
# Summary of the method: as §1
# [30] = target: Fuc(a1-2)[GalNAc(a1-3)]Gal
# Summary of the method: as §1
# [31] = target: Fuc(a1-2)[GalNAc(a1-3)]Gal(b1-3)GalNAc(a1-3)[Fuc(a1-2)]Gal(b1-4)GlcNAc
# Summary of the method: as §1
# [32] = target: Fuc(a1-2)[GalNAc(a1-3)]Gal(b1-3)GalNAc(b1-3)Gal(a1-4)Gal(b1-4)Glc
# Summary of the method: as §1
# [33] = target: Fuc(a1-2)[GalNAc(a1-3)]Gal(b1-3)GlcNAc
# Summary of the method: as §1
# [34] = target: Fuc(a1-2)[GalNAc(a1-3)]Gal(b1-3)GlcNAc(b1-2)Man(a1-3)[Fuc(a1-2)[GalNAc(a1-3)]Gal(b1-3)GlcNAc(b1-2)Man(a1-6)]Man(b1-4)GlcNAc(b1-4)GlcNAc
# Summary of the method: as §1
# [35] = target: Fuc(a1-2)[GalNAc(a1-3)]Gal(b1-3)GlcNAc(b1-2)Man(a1-3)[Fuc(a1-2)[GalNAc(a1-3)]Gal(b1-3)GlcNAc(b1-2)Man(a1-6)]Man(b1-4)GlcNAc(b1-4)[Fuc(a1-6)]GlcNAc
# Summary of the method: as §1
# [36] = target: Fuc(a1-2)[GalNAc(a1-3)]Gal(b1-3)GlcNAc(b1-3)GalNAc
# Summary of the method: as §1
binder,measurement,setting,value
B1,glycan array binding signal (z-score),[1],1.17
same,glycan array binding signal (z-score),[2],1.01
same,glycan array binding signal (z-score),[3],-1.32
same,glycan array binding signal (z-score),[4],1.93
same,glycan array binding signal (z-score),[5],0.625
same,glycan array binding signal (z-score),[6],0.582
same,glycan array binding signal (z-score),[7],0.542
same,glycan array binding signal (z-score),[8],-0.207
same,glycan array binding signal (z-score),[9],0.343
same,glycan array binding signal (z-score),Fuc(a1-2)Gal6S(b1-4)Glc,0.449
same,glycan array binding signal (z-score),[10],0.065
same,glycan array binding signal (z-score),Fuc(a1-2)[Gal(a1-3)]Gal,1.17
same,glycan array binding signal (z-score),[11],0.458
same,glycan array binding signal (z-score),[12],-0.184
same,glycan array binding signal (z-score),[13],-0.498
same,glycan array binding signal (z-score),[14],-1.19
same,glycan array binding signal (z-score),[15],0.961
same,glycan array binding signal (z-score),[16],-0.841
same,glycan array binding signal (z-score),[17],-0.634
same,glycan array binding signal (z-score),[18],-0.801
same,glycan array binding signal (z-score),[19],-1.2
same,glycan array binding signal (z-score),[20],-0.613
same,glycan array binding signal (z-score),[21],-0.477
same,glycan array binding signal (z-score),[22],-0.478
same,glycan array binding signal (z-score),[23],0.117
same,glycan array binding signal (z-score),[24],-0.031
same,glycan array binding signal (z-score),[25],-0.488
same,glycan array binding signal (z-score),[26],-0.455
same,glycan array binding signal (z-score),[27],0.155
same,glycan array binding signal (z-score),[28],-0.349
same,glycan array binding signal (z-score),[29],0.561
same,glycan array binding signal (z-score),[30],-0.209
same,glycan array binding signal (z-score),[31],-0.921
same,glycan array binding signal (z-score),[32],-0.107
same,glycan array binding signal (z-score),[33],-0.797
same,glycan array binding signal (z-score),[34],-1.44
same,glycan array binding signal (z-score),[35],-0.601
same,glycan array binding signal (z-score),[36],0.286

# Reprinted at random: 2 entries already listed, in no set order.
binder,measurement,setting,value
B1,glycan array binding signal (z-score),[34],-1.44
same,glycan array binding signal (z-score),[19],-1.2
